From the supplement of paper PMC8166895 come the findings set out here.

The structures appear in SMILES notation. Counter-ions that a name gives are not always drawn. Some of the results follow. Most values lie at the level of the controls, where differences are scatter.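 Differential scanning fluorimetry gave melting temperatures in a one-replicate pilot screen of a library of approved drugs plus clinical or known-target compounds. Hits increasing melting point at least 2 °C were the strongest stabilizers, while negative shifts signify destabilization.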 Where a SMILES comes first, the peptide text is derived from it. [ ]: non-standard residue; d: D form. The star is where a group is joined. Dolaproine = CO[C@@H]([C@@H]1CCCN1)[C@@H](C)C(=O)O; Dil = CC[C@H](C)[C@H](NC)[C@@H](CC(=O)O)OC; X1 = C[C@@H](N*)[C@@H](O)c1ccccc1; NMeV = CN[C@H](C(=O)O)C(C)C

For this test, the system named is SARS-CoV-2 main protease (Mpro, nsp5). Nature of the test: thermal shift ΔTm of Mpro relative to plate average Tm; higher = stronger thermal stabilization of Mpro (binding). The note with it: 10 µM; protein concentration 1 µM.
With `CC(C)CNc1nc(N2CCN(CC3CCCOC3)CC2)ncc1C(=O)NCc1ccccc1` (stereo not drawn), the “thermal shift ΔTm of Mpro” value was -0.319 °C. In the case of `O=c1[nH]c(=O)n([C@H]2C[C@H](O)[C@@H](CO)O2)cc1/C=C/Br` [Brivudine], the “thermal shift ΔTm of Mpro” value is 0.0223 °C.

Take `COc1ccc(-c2cc3c(C)nc(N)nc3n([C@H]3CC[C@H](OCCO)CC3)c2=O)cn1`: the “thermal shift ΔTm of Mpro” value was -0.176 °C. To `CC1=NN(c2ccc(C(=O)O)cc2)C(=O)C1=Cc1ccc(-c2cc(C)c(C)cc2[N+](=O)[O-])o1` belongs 0.0905 °C. Take `COc1cc[nH]c(=O)c1C#N` [4-Methoxy-2-oxo-1,2-dihydro-pyridine-3-carbonitrile]: the “thermal shift ΔTm of Mpro” value was determined as 0.305 °C.

Consider `CCOC(=O)c1ccc(C#Cc2ccc3c(c2)C(C)(C)CCS3)nc1` [Tazarotene], for which the “thermal shift ΔTm of Mpro” value was -0.313 °C. For the compound `CC(C)N(CCC(=O)c1ccc2ccccc2c1)Cc1ccccc1`, the “thermal shift ΔTm of Mpro” value is 0.229 °C. To `CC(C)(C)C#Cc1cc(N(C(=O)[C@H]2CC[C@H](C)CC2)[C@H]2CC[C@H](O)CC2)c(C(=O)O)s1` [VX-222 (VCH-222, Lomibuvir)] belongs 0.206 °C; to `CCC(C)(C)c1ccc(CC(C)CN2C[C@@H](C)O[C@@H](C)C2)cc1` (stereo partly drawn) [Amorolfine HCl], 0.00535 °C. For `O=C(O)c1cc(=O)c2c(OCC(O)COc3cccc4oc(C(=O)O)cc(=O)c34)cccc2o1` [Sodium cromoglycate], the “thermal shift ΔTm of Mpro” value stood at 0.0904 °C.

`Oc1c(Cl)cc(Cl)cc1Sc1cc(Cl)cc(Cl)c1O` [Bithionol]: the “thermal shift ΔTm of Mpro” value came to 0.205 °C. To `C=CCc1ccccc1OCC(O)CNC(C)C` (stereo not drawn) [Alprenolol] belongs 0.0956 °C.

Turning to `CCCCOc1ccc(CC(=O)NO)cc1` [Bufexamac], the “thermal shift ΔTm of Mpro” value is -0.0643 °C. Regarding `Cc1cc(C)cc(NC(=O)Cc2ccc(OC(C)(C)C(=O)O)cc2)c1` [Efaproxiral Sodium], the “thermal shift ΔTm of Mpro” value was -0.0896 °C. Then `Cc1ccc(O)c([C@H](CCN(C(C)C)C(C)C)c2ccccc2)c1` [Tolterodine tartrate], with -0.0723 °C; and `CCCCCCCCCCCCCCCCO` [1-Hexadecanol], with -0.207 °C; and `C[C@H]1c2cccc(O)c2C(O)=C2C(=O)[C@]3(O)C(O)=C(C(N)=O)C(=O)[C@@H](N(C)C)[C@@H]3[C@@H](O)[C@@H]21` [Doxycycline HCl], with -0.137 °C. Regarding `C[C@H]1c2cccc(O)c2C(O)=C2C(=O)[C@]3(O)C(O)=C(C(N)=O)C(=O)[C@@H](N(C)C)[C@@H]3[C@@H](O)[C@@H]21` [Doxycycline Hyclate], the “thermal shift ΔTm of Mpro” value was determined as 0.0283 °C.

Take `Cc1c(O)cccc1C(=O)N[C@@H](CSc1ccccc1)[C@H](O)CN1C[C@H]2CCCC[C@H]2C[C@H]1C(=O)NC(C)(C)C` [Nelfinavir Mesylate]: the “thermal shift ΔTm of Mpro” value is -0.109 °C. Then `CC(C)NCCCn1c(Sc2cc3c(cc2I)OCO3)nc2c(N)ncnc21`, with -0.143 °C; and `Nc1ccn([C@@H]2O[C@H](CO)[C@@H](O)[C@H]2O)c(=O)n1` [Cytidine], with 0.0474 °C. Then `CN(C)CCC(c1ccccc1)c1ccccn1` (stereo not drawn) [Pheniramine Maleate], with 0.0584 °C.

Take `Cc1cccc(Nc2nc(-c3ccncc3)cs2)c1`: the “thermal shift ΔTm of Mpro” value was -0.143 °C. As for `CCOc1ccc(Cc2cc([C@@H]3O[C@H](CO)[C@@H](O)[C@H](O)[C@H]3O)ccc2Cl)cc1` [Dapagliflozin ((2S)-1,2-propanediol, hydrate)], the “thermal shift ΔTm of Mpro” value is 0.0114 °C. Then `CCOc1ccc(Cc2cc([C@@H]3O[C@H](CO)[C@@H](O)[C@H](O)[C@H]3O)ccc2Cl)cc1` [Dapagliflozin], with -0.0272 °C; and `CC(C)(C)NC(=O)c1cncn1C1CCN(c2ccc(-c3nnc(C(F)(F)F)o3)cn2)CC1`, with -0.00432 °C; and `CN(C)CCN1C(=O)c2cccc3cc(N)cc(c23)C1=O` [Amonafide], with 0.655 °C. As for `O=c1cc(CN2CCOCC2)occ1OCCCCCSc1ccnc2cc(C(F)(F)F)ccc12`, the “thermal shift ΔTm of Mpro” value was -0.378 °C. Turning to `NCCCC[C@H](NC(=O)[C@H](Cc1cnc[nH]1)NC(=O)CN)C(=O)O` [Glycyl-L-Histidyl-L-Lysine] (H-Gly-His-Lys-OH), the “thermal shift ΔTm of Mpro” value was found to be 0.177 °C. Consider `O[C@@H]1CO[C@H]2[C@@H]1OC[C@@H]2O` [Isosorbide], for which the “thermal shift ΔTm of Mpro” value is -0.107 °C. For the compound `NC1(C(=O)O)CCC(C(=O)O)C1` (mixture of isomers) [(±)-trans-ACPD], the “thermal shift ΔTm of Mpro” value is -0.0839 °C. Then `CCn1c(-c2nonc2N)nc2cnc(Oc3cccc(NC(=O)c4ccc(OCCN5CCOCC5)cc4)c3)cc21`, with -0.215 °C; and `O=C(O)c1ccc(N2C(=O)C(=Cc3ccc(-c4ccc([N+](=O)[O-])cc4)o3)C=C2c2ccccc2)cc1`, with 0.426 °C. Then `CC(C)(C)C(O)/C=C/c1ccc2c(c1)OCO2` (stereo not drawn) [Stiripentol], with 0.282 °C; and `Cc1cc(CS(=O)(=O)c2ccccc2)cc(OCc2ccc(CN3CCC[C@@H]3CO)cc2)c1`, with -0.124 °C; and `CCc1cc(/C(C)=N/OCc2ccc(C3CCCCC3)c(C(F)(F)F)c2)ccc1CN1CC(C(=O)O)C1` [BAF312 (Siponimod)], with -1.11 °C. Then `CCN(CCCc1ccccc1)CCCc1ccccc1` [Alverine Citrate], with -0.00601 °C; and `COc1ccccc1/C=C1\C(=O)Nc2ccccc21`, with -0.0187 °C. With `COc1cc2c(cc1OC)CN(CCc1ccc(NC(=O)c3cccc4c(=O)c5cccc(OC)c5[nH]c34)cc1)CC2`, the “thermal shift ΔTm of Mpro” value is -0.125 °C. With `O=P(O)(O)C(O)(Cc1cccnc1)P(=O)(O)O` [Risedronate Sodium], the “thermal shift ΔTm of Mpro” value was 0.183 °C. Then `O=P(O)(O)C(O)(Cc1cccnc1)P(=O)(O)O` [Risedronic Acid], with -0.0183 °C.

On to `CC[C@H](C)[C@@H]([C@@H](CC(=O)N1CCC[C@H]1[C@H](OC)[C@@H](C)C(=O)N[C@H](C)[C@@H](O)c1ccccc1)OC)N(C)C(=O)[C@@H](NC(=O)[C@@H](NC)C(C)C)C(C)C` [Monomethyl auristatin E (MMAE)] (H-[NMeV]V[Dil][Dolaproine]-X1), for which the “thermal shift ΔTm of Mpro” value is -0.31 °C.

As for `O=C(Nc1ccc2c(O)cc(S(=O)(=O)O)cc2c1)Nc1ccc2c(O)cc(S(=O)(=O)O)cc2c1`, the “thermal shift ΔTm of Mpro” value amounted to 0.49 °C.

Turning to `CCN(CC)C(=O)N1CCN(C)CC1` [Diethylcarbamazine citrate], the “thermal shift ΔTm of Mpro” value is -0.194 °C. With `CC(C)(C)c1ccc(S(=O)(=O)NCc2ccc(C(=O)Nc3cccnc3)cc2)cc1`, the “thermal shift ΔTm of Mpro” value was 0.18 °C. In the case of `Cc1ccccc1C(=O)N1CCc2cc(-c3nc(NC(=O)Cc4ccc5c(c4)OCO5)sc3C)ccc21`, the “thermal shift ΔTm of Mpro” value is -0.219 °C. Then `Cc1c(Br)cc(NCC(=O)N/N=C/c2cc([N+](=O)[O-])ccc2O)cc1Br`, with 0.249 °C; and `Cc1cc(CC(C)CC(C)(C)C)n(O)c(=O)c1` (stereo not drawn) [Piroctone olamine], with -0.225 °C.
